The list shows a part of the results.
Experiment: BmaI1 acyl-homoserine lactone synthase inhibition – biochemical, fluorescence intensity, with counterscreen (AID 720554)
Conditions: BmaI1 enzyme assay, measured here: counterscreen fluorescence % control, concentration not given here

Compound	inhibition [%]
Cc1ccc(C(=O)NCC2(N(C)C)CCCCC2)o1	3.5
Cc1cnc(C(=O)NCC2(N3CCCCC3)CCCCC2)cn1	10.5
O=C(NCC1(N2CCOCC2)CCCCC1)c1ccc2nc[nH]c2c1	10.5
CN(C)c1ccc(C(=O)NCC2(N3CCCCC3)CCCCC2)cc1	11.5
O=C(NCC1(N2CCOCC2)CCCCC1)c1cc2ccccc2cc1O	5

Reference: PubChem BioAssay AID720554 (ICCB-Longwood Screening Facility, Harvard Medical School, 2013)
